Library screen at single concentrations

Measurements from “University of Dundee, Small-Polar-MMV Screening Library” (2021), ChEMBL document CHEMBL3988442.

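Whole-parasite assay of Trypanosoma brucei over 72 hours; the read-out is not stated. Compounds at 30 µM. Higher reads as stronger inhibition (inferred: compounds with an IC50 in retests scored well above the rest). Values scatter widely below zero; nearly all retest evidence comes from the higher of the two concentrations used. Of about 64,000 compounds tested this way, about 940 (1.5%) reached 50% or more in at least one test.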

Values are the deposited “Percent Effect”, in %.
The controls that fix the scale are not given in the record; negative values are as filed.
This is an unselected part of the compounds tested.

{"compound": "CC(C)N1CCCC(Cc2nccnc2Cl)C1", "stereo": "stereo not drawn", "percent effect": -6.084}
{"compound": "O=C(N1CCCC1)N1CCCC2(CCN(c3ccsc3)C2=O)C1", "stereo": "stereo not drawn", "percent effect": -19.97}
{"compound": "CC(C)CN1CCC(c2nc3ccc(NC(C)C)cn3n2)CC1.O=C(O)C(F)(F)F.O=C(O)C(F)(F)F", "percent effect": -7.755}
{"compound": "CCNc1cc2c(nn1)CCN(C(=O)c1ccnc(-n3ccnc3)c1)C2", "percent effect": 10.66}
{"compound": "O[C@@H]1C[C@@H](c2nc(-c3ccccc3)no2)N(Cc2ccncc2)C1", "percent effect": 0.4473}
{"compound": "CCNc1cc2c(nn1)CCN(C(=O)C1Cc3ccccc3S1)C2", "stereo": "stereo not drawn", "percent effect": -5.917}
{"compound": "CC(Nc1cccc2c1OCCO2)C(=O)Nc1ccc(Cl)cc1", "stereo": "stereo not drawn", "percent effect": -32.77}
{"compound": "Cc1noc2ncc(C(=O)N3CCCC3c3ccsc3)cc12", "stereo": "stereo not drawn", "percent effect": 7.967}
{"compound": "CCOc1ccnc(N2CCCN(c3nc(CC)ns3)CC2)n1", "percent effect": 18.5}
{"compound": "CC(C)Cc1cc(C(=O)N2CCC[C@H]2C(=O)N2CCOCC2)on1", "percent effect": -10.51}
{"compound": "CCN1CCC(NC(=O)NC2CCOc3ccc(Br)cc32)CC1", "stereo": "stereo not drawn", "percent effect": 3.597}
{"compound": "CS(=O)(=O)c1ccc(NC(=O)NCc2ccc(F)cc2)cn1", "percent effect": -21.6}
{"compound": "Cc1c(CN2CCCC(c3[nH]ncc3S(C)(=O)=O)C2)cnn1C", "stereo": "stereo not drawn", "percent effect": 7.724}
{"compound": "CCn1ccnc1-c1nc2cc(S(=O)(=O)N3CCCC3)ccc2n1C", "percent effect": -57.57}
{"compound": "N#Cc1ccc(N2CCC(c3nccn3Cc3cscn3)CC2)nc1", "percent effect": 14.24}
{"compound": "O=C(CC1CCCCC1)N1CCC(O)(C(F)(F)F)C1", "stereo": "stereo not drawn", "percent effect": -56.27}
{"compound": "CCN(C)Cc1n[nH]c(=O)n1-c1cc(F)ccc1C", "percent effect": -1.097}
{"compound": "CCC(=O)NCCCn1c(-c2cccnc2C)cc2cccnc21.Cl", "percent effect": -13.2}
{"compound": "Cn1cc(CCCN2CCCC(c3cc(C(F)(F)F)[nH]n3)C2)cn1", "stereo": "stereo not drawn", "percent effect": 9.72}
{"compound": "CC(CNC(=O)c1cc(Cl)ccc1F)N1CCCC1", "stereo": "stereo not drawn", "percent effect": 2.821}
{"compound": "COc1ccc(CN(C)C(=O)CN2CC(n3cc(C)cn3)C2)cc1F", "percent effect": -1.01}
{"compound": "COCCn1/c(=N\\C(=O)CN(C)S(C)(=O)=O)sc2cc(Cl)ccc21", "percent effect": -14.03}
{"compound": "NC(=O)N1CCCC(c2nc(-c3cccnn3)no2)C1", "stereo": "stereo not drawn", "percent effect": -13.14}
{"compound": "NC(=O)C1CN(C(=O)Nc2ccccc2N2CCCCCC2)CCO1", "stereo": "stereo not drawn", "percent effect": 20.8}
{"compound": "[H][C@@]12CCC(=O)N(CCC3=CCCCC3)[C@]1([H])CCN(C1CCN(C)CC1)C2", "percent effect": 10.08}
{"compound": "Cc1n[nH]c2c1C(c1ccc(O)c(Cl)c1)SCC(=O)N2", "stereo": "stereo not drawn", "percent effect": 44.52}
{"compound": "CC(C)c1noc(C(C)N2CCN(Cc3ccsc3)CC2)n1", "stereo": "stereo not drawn", "percent effect": 8.292}
{"compound": "CN(C)C(=O)c1cn[nH]c1C1CCCN1Cc1cncn1C", "stereo": "stereo not drawn", "percent effect": -8.552}
{"compound": "CN(C)c1nccc(C2CCN(C(=O)CO)CC2)n1", "percent effect": -7.347}
{"compound": "Cc1noc(C)c1CN(C)C(=O)NC(C)c1cccs1", "stereo": "stereo not drawn", "percent effect": -47.04}
{"compound": "COc1cccc(-c2n[nH]cc2C(=O)NC(C)c2nc(C(C)C)no2)c1", "stereo": "stereo not drawn", "percent effect": 7.675}
{"compound": "CC(C)C(NC(=O)c1ccco1)C(=O)N1CCC2(CC1)OCCO2", "stereo": "stereo not drawn", "percent effect": -84.83}
{"compound": "COc1ccc(C(=O)N2CCOC3(CNCCOC3)C2)c(OC)n1", "stereo": "stereo not drawn", "percent effect": -19.5}
{"compound": "Cc1cccnc1NC(=O)N(CCO)Cc1ccsc1", "percent effect": 7.691}
{"compound": "Cc1cnc(CN2CCN(c3ccc4nncn4n3)C(C)C2)cn1", "stereo": "stereo not drawn", "percent effect": 9.765}
{"compound": "COCCN1CCc2ccccc2NCCC1=O", "percent effect": -18.47}
{"compound": "Cc1cc(NC(=O)N2CCCC(CO)C2)nn1-c1ccccc1Cl", "stereo": "stereo not drawn", "percent effect": -5.178}
{"compound": "Cc1ccc(CN2CC3(CCN(C(=O)c4cccnc4)C3)C2)o1.O=C(O)C(F)(F)F.O=C(O)C(F)(F)F", "percent effect": -42.31}
{"compound": "O=C(O)C(F)(F)F.[H][C@]12C[C@@H](C(=O)N(C)C)CO[C@@]1([H])CCN(c1ncc(F)cn1)C2", "percent effect": -10.45}
{"compound": "c1cncc(-c2noc(CN3CCn4c(nnc4C4CC4)C3)n2)c1", "percent effect": -2.127}

The first 3 entries again:

{"compound": "CC(C)N1CCCC(Cc2nccnc2Cl)C1", "stereo": "stereo not drawn", "percent effect": -6.084}
{"compound": "O=C(N1CCCC1)N1CCCC2(CCN(c3ccsc3)C2=O)C1", "stereo": "stereo not drawn", "percent effect": -19.97}
{"compound": "CC(C)CN1CCC(c2nc3ccc(NC(C)C)cn3n2)CC1.O=C(O)C(F)(F)F.O=C(O)C(F)(F)F", "percent effect": -7.755}